The experiment has as its target T1, SMO-193a.a.-3XFlag (human) (UniProt Q99835).
T1 sequence: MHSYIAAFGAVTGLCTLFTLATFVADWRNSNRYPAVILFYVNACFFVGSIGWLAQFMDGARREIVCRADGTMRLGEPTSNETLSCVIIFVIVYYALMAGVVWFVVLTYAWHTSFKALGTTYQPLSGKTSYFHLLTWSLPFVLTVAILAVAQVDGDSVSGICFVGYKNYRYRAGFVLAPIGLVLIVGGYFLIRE
Briefly: co-IP; 373 GBM cells overexpressing SMO-193a.a.-3XFlag and HA-tagged full-length or truncated SMO; co-IP soft RIPA lysis buffer, protein A/G agarose, Western blotting.

Results are given in words; binding and its absence hold for the method and conditions named. In cells and extracts the contact can be indirect. Binding calls can cover weak binding; strength is not graded here. Sequences can lack the tags named with a protein.

For “C-HA (C-terminal of SMO) (human) (domain or fragment)”, the binding entry was “no binding”.

In the case of “N-HA (N terminal of SMO) (human) (domain or fragment)”, the binding result is on record as “binds”.
